Taken from: PubChem BioAssay AID1224826 (NIAID, 2016)

- Test: 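Regulators of Tlr4 signalling leading to Tnf-alpha expression in macrophages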 (primary screen)
- System: RAW264.7 G9 macrophages from mouse bearing reporters for p65 (GFP) and the Tnf promoter (mCherry)
- Reagents: siRNA pool against mouse genes, 100 nM
- Time to read-out: 16 h of LPS stimulation, after 2 days of siRNA transfection
- Treatment: bacterial lipopolysaccharide (Salmonella minnesota R595), 10 ng/ml
- Read-out: 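Nuclear mCherry signal of the Tnf promoter reporter measured by imaging after background removal, scaled to each plate median and turned into robust z-scores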
- Scale: Tnf reporter robust z-score: higher = stronger Tnf promoter reporter signal after LPS
- Active means: 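a well counts as active at a score of -1.3 or below (Tlr4 knock-down control median) or above 3 (raised signal); controls and wells holding fewer than 50 cells are excluded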
- Calls: active = Tnf reporter clearly lowered or raised; inactive = no clear change in Tnf reporter
This is a random part of about 17,000 deposited reagents. About 1,110 of them (6.6%) were called active. 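Active means lowered or raised reporter signal; replicate intensities are raw and not normalised per plate.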 A number with no mark means an inactive call. Further read-outs or replicates are left out here. No sequences are given here.

The first 2 records, to show the layout:
Lcn10 — Tnf reporter robust z-score: 0.85; fewer than 50 cells in well: enough cells in well
Or1j18 — Tnf reporter robust z-score: 0.48; fewer than 50 cells in well: enough cells in well

Results, from the first entry:
Lcn10 — Tnf reporter robust z-score: 0.85; fewer than 50 cells in well: enough cells in well
Or1j18 — Tnf reporter robust z-score: 0.48; fewer than 50 cells in well: enough cells in well
Copb2 — fewer than 50 cells in well: fewer than 50 cells per well; well left out of calls
Wdr25 — Tnf reporter robust z-score: -0.09; fewer than 50 cells in well: enough cells in well
Prdx6b — fewer than 50 cells in well: fewer than 50 cells per well; well left out of calls
Vmn1r183 — fewer than 50 cells in well: fewer than 50 cells per well; well left out of calls
Necab3 — Tnf reporter robust z-score: 1.66; fewer than 50 cells in well: enough cells in well
Prkag3 — Tnf reporter robust z-score: 0.5; fewer than 50 cells in well: enough cells in well
Mtrex — fewer than 50 cells in well: fewer than 50 cells per well; well left out of calls
Fabp7 — Tnf reporter robust z-score: 0.73; fewer than 50 cells in well: enough cells in well
Clstn3 — Tnf reporter robust z-score: -0.51; fewer than 50 cells in well: enough cells in well
Mnat1 — Tnf reporter robust z-score: 0.32; fewer than 50 cells in well: enough cells in well
Soat1 — Tnf reporter robust z-score: 0.15; fewer than 50 cells in well: enough cells in well
Atp6v1c2 — Tnf reporter robust z-score: -1.2; fewer than 50 cells in well: enough cells in well
Jmjd4 — Tnf reporter robust z-score: -0.3; fewer than 50 cells in well: enough cells in well
Manba — Tnf reporter robust z-score: -0.18; fewer than 50 cells in well: enough cells in well
1810018F18Rik — Tnf reporter robust z-score: -0.27; fewer than 50 cells in well: enough cells in well
Cyb5b — Tnf reporter robust z-score: 0.31; fewer than 50 cells in well: enough cells in well
Hps3 — Tnf reporter robust z-score: 0.95; fewer than 50 cells in well: enough cells in well
Ccl2 — Tnf reporter robust z-score: 1.7; fewer than 50 cells in well: enough cells in well
Krtap3-2 — Tnf reporter robust z-score: 1.51; fewer than 50 cells in well: enough cells in well
Asns — fewer than 50 cells in well: fewer than 50 cells per well; well left out of calls
E030011O05Rik — Tnf reporter robust z-score: 2.06; fewer than 50 cells in well: enough cells in well
Minar2 — Tnf reporter robust z-score: 1.7; fewer than 50 cells in well: enough cells in well
Pde4a — Tnf reporter robust z-score: 0.06; fewer than 50 cells in well: enough cells in well
Acadm — Tnf reporter robust z-score: 0.64; fewer than 50 cells in well: enough cells in well
Rcor1 — Tnf reporter robust z-score: -0.14; fewer than 50 cells in well: enough cells in well
